The text below walks through data of PubChem BioAssay AID493027 (The Scripps Research Institute Molecular Screening Center, 2011).

Protein sequences, listed by entry. Tags and fused reporters are not part of them. Lines headed by an entry give the natural chain unless they say otherwise; changes in a name come on top.
UniProt O60240: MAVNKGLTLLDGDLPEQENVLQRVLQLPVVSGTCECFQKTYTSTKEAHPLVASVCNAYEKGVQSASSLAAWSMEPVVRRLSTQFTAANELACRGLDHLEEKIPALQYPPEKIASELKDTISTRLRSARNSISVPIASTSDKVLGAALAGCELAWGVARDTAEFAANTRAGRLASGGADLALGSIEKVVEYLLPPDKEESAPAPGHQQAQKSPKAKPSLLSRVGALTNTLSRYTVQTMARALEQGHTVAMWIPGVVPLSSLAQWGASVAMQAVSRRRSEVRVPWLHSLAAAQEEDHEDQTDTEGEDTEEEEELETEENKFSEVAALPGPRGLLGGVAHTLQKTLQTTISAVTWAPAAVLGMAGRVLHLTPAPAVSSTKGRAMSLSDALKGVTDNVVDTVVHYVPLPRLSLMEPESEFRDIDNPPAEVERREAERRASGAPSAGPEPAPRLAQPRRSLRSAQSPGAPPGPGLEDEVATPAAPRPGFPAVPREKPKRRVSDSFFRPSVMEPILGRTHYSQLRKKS
UniProt Q8WTS1: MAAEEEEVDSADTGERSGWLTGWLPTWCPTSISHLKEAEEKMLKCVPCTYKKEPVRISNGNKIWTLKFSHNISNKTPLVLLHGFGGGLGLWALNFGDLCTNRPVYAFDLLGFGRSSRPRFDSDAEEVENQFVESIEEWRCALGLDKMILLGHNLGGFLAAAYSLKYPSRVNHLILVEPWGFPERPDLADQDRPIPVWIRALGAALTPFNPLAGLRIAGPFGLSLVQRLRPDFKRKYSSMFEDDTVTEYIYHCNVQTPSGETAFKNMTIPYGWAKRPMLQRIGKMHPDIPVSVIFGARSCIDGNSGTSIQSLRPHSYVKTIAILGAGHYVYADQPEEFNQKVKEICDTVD

About 45 (2%) of roughly 2,000 compounds were called active.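 Rule for the calls: active = inhibition above the screen-wide mean inhibition plus 3 SD (cut at about 44% in these data); inactive = the rest.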 The list shows a part of the results. Where a SMILES comes first, the peptide text is derived from it. The star is where a group is joined. Boc = CC(C)(C)OC(=O)*

The assay has as its target Perilipin-1 (Homo sapiens) + 1-acylglycerol-3-phosphate O-acyltransferase ABHD5 (Homo sapiens) (UniProt O60240+Q8WTS1). Description: ABHD5-PLIN1 interaction inhibitors, pilot screen, cell lysate, split luciferase complementation, luminescence, NIH validation set (AID 493027).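 Note: 0% = DMSO wells with the 100% control not disclosed.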 Conditions: split G. princeps luciferase complementation, 4 h; at 7.9 µM, hits give high values.
As usually defined, the inhibition is the drop in the measured response relative to a control, in per cent. With `COc1cc2c(cc1OC)C(c1cc(OC)c(OC)c(OC)c1)NCC2` (stereo not given), the inhibition is inactive: -1.43%.

Take `COc1ccc2[nH]c3c(=O)n(/N=C/[C@H]4C(C)C=C(C)CC4C)c(=O)[nH]c3c2c1` (stereo not given in full): the inhibition is inactive: 23.9%.

For the compound `Oc1c(Cl)cc(Cl)c(Cl)c1Cc1c(O)c(Cl)cc(Cl)c1Cl`, the inhibition is inactive: 0.61%.

With `COc1cccc(-n2c(C)c3c(OC)cccc(=O)c3c2C)c1`, the inhibition is inactive: 12%.

As to `CCCCC[C@H](O)/C=C/C1=C(CCCCCCC(=O)O)C(=O)CC1`, the inhibition is inactive: 22.3%.

As for `COc1cccc(OC)c1C(=O)NCCSC1CCCCC1`, the inhibition is inactive: 4.52%.

For the compound `CNc1nc(Nc2ccccc2)nc(OCC(F)(F)F)n1`, the inhibition was inactive: -9.06%.

Consider `COc1ccc(C(=O)/C=C2/c3ccccc3CC(C)(C)N2C)cc1`, for which the inhibition was inactive: 12%.

Consider `O=C(CCC(=O)NCCO)NCCO`, for which the inhibition was inactive: 7.42%.

Take `Oc1ccc(/C=C/c2cc(O)cc(O)c2)cc1`: the inhibition was inactive: 1.01%.

For the compound `COc1ccc(/C=C/C(=O)Nc2ccccc2C(=O)O)cc1OC`, the inhibition is inactive: -6.48%.

Consider `COC(=O)c1cc(-c2ccc(OC)c(OC)c2)on1`, for which the inhibition was inactive: -7.32%.

In the case of `CC(=O)N/C(=C/c1ccc2c(c1)OCO2)C(=O)NCCO`, the inhibition is inactive: 1.37%.

Regarding `COC(=O)c1[nH]c(=O)c2ccccc2c1O`, the inhibition is inactive: 0.41%.

For the compound `CCc1nc2ccccc2c(NC(=O)CN2CC(C)CC(C)C2)c1C` (stereo not given), the inhibition was inactive: -6.89%.

For `CC(=O)c1ccc(CCCCCCCCCC(=O)O)s1`, the inhibition was inactive: -12.1%.

Take `COc1cc2c(cc1OC)/C(=C/c1ccc(Cl)cc1)C(=O)OC2`: the inhibition is inactive: 27.4%.

For the compound `C=C(C)Cn1c(NCCOC)nc2c1c(=O)[nH]c(=O)n2C`, the inhibition was inactive: -5.11%.

Turning to `O=C(CCCCCCCC(=O)c1ccccc1)c1ccccc1`, the inhibition is inactive: -5.61%.

`Cc1cc(=O)[nH]c(=S)[nH]1`: the inhibition is inactive: 1.21%.

Turning to `Cc1ccc(Nc2ncccc2C(=O)O)cc1C`, the inhibition is inactive: -1.57%.

Consider `COc1ccccc1C(=O)Oc1ccc2c(c1)O/C(=C\c1ccncc1)C2=O`, for which the inhibition was active: 45.6%.

As for `CN(C)CCOC(C)(c1ccccc1)c1ccccn1` (stereo not given), the inhibition is inactive: -12.1%.

As for `CN(C(=O)C(Cl)Cl)c1ccc(OC(=O)c2ccco2)cc1`, the inhibition was inactive: -2.19%.

On to `Cc1oc2c(CN3CCCC3)c(O)ccc2c(=O)c1-c1ccc(Cl)cc1`, for which the inhibition was inactive: -6.73%.

Consider `COC(=O)c1cc(OC)c(OC)cc1NC(=O)CN1C(=O)c2ccccc2C1=O`, for which the inhibition was inactive: -6.28%.

On to `Cc1ccc(S(=O)(=O)NC(C(=O)Oc2ccc3c(C(F)(F)F)cc(=O)oc3c2)c2ccccc2)cc1` (stereo not given), for which the inhibition is inactive: -15.3%.

For `CNC[C@H](O)c1ccc(O)c(O)c1`, the inhibition is inactive: -31.2%.

Take `C[N+]1(C2CCC3CCCC2C3O)CCCCC1` (stereo not given): the inhibition was inactive: -12.9%.

Take `CC(C)[N+]1(C)[C@@H]2CC[C@H]1CC(OC(=O)C(CO)c1ccccc1)C2` (stereo not given in full): the inhibition is inactive: -5.55%.

On to `CC(C)CC(NC(=O)C1CCCN1C(=O)OC(C)(C)C)C(=O)NCC(N)=O` (stereo not drawn) (Boc-Pro-Leu-Gly-NH2; configuration not given here), for which the inhibition was inactive: -12.5%.

Turning to `Cc1ncc(C(=O)O)c(C(=O)O)c1N`, the inhibition is inactive: -8.83%.

For `CN1CCN(CCCN2c3ccccc3Sc3ccc(C(F)(F)F)cc32)CC1`, the inhibition was inactive: -7.64%.

Regarding `COc1ccc(NC(=O)C2C(=O)N(CCO)C3(C)CC2c2ccccc2O3)cc1` (stereo not given), the inhibition was inactive: -10.9%.

On to `Cc1ccc(S(=O)(=O)n2ccnc2)cc1C`, for which the inhibition is inactive: -7.27%.

Consider `Cc1csc(-c2coc3cc(O)cc(C)c3c2=O)n1`, for which the inhibition was inactive: 12.8%.

In the case of `NC(N)=NC(N)=NCCc1ccccc1`, the inhibition was inactive: -12.7%.

Regarding `CC(NC(=O)c1cccnc1)C(=O)O` (stereo not given), the inhibition is inactive: -12.5%.

With `CC(C)OC(=O)CC1C(=O)NCCN1C(=S)NC(=O)c1cccs1` (stereo not given), the inhibition is inactive: -13.4%.

Turning to `COc1ccc(OCc2cccc(C(=O)NN)c2)cc1`, the inhibition is inactive: -3.21%.

Consider `C/C(=N\NC(=O)c1ccccc1[N+](=O)[O-])c1ccc(Br)s1`, for which the inhibition was inactive: 0.76%.

For `O=C(COc1ccc2ccc(=O)oc2c1)c1ccccc1`, the inhibition was inactive: -2.99%.

As to `O[C@H]1COC2C1OC[C@@H]2O` (stereo not given in full), the inhibition was inactive: -6.39%.

Consider `CCc1cccc2c1NC1(CCCC1)CC2C` (stereo not given), for which the inhibition is inactive: -8.25%.

`Nc1nc2ccc(OC(F)(F)F)cc2s1`: the inhibition was inactive: -1.63%.

Consider `CC(C)CN1CCN(Cc2ccc(C#CC(C)(C)O)cc2)CC1CCO` (stereo not given), for which the inhibition is inactive: -1.18%.

Regarding `COc1ccc2c(c1)c(CC(=O)O)c(C)n2C(=O)c1ccc(Cl)cc1`, the inhibition was inactive: -7.19%.

On to `O=c1c(-c2ccc3c(c2)OCCO3)coc2cc(OC3OC(CO)C(O)C(O)C3O)ccc12` (stereo not given), for which the inhibition was inactive: -4.41%.

As for `Cc1cccc(N2CCN(C(=S)c3ccccc3)CC2)c1`, the inhibition was inactive: -5.97%.

As for `O=c1ccc2c(o1)/C(=C/C=C(Cl)Cl)CCC2`, the inhibition is inactive: 5.65%.

`Cc1ccc(OCCCCn2ccnc2C)c(C)c1`: the inhibition was inactive: -5.04%.

As for `CCOC(=O)C1C(=O)OC2(CCOC(C)(C)C2)C1C(=O)OCC` (stereo not given), the inhibition was inactive: -2.67%.

For `CC(=O)NC1C(OCCOc2ccc(Cl)cc2Cl)OC(COC(C)=O)C(OC(C)=O)C1OC(C)=O` (stereo not given), the inhibition is inactive: -6.38%.

Turning to `Cn1c(=O)c2c(ncn2Cc2ccccc2)n(C)c1=O`, the inhibition is inactive: -11.2%.

On to `CCOC(=O)C(NC(=O)CCC(=O)Nc1ccc(S(N)(=O)=O)cc1)C(O)c1ccccc1` (stereo not given), for which the inhibition was inactive: -1.09%.

Turning to `C=CCc1cc(Cl)ccc1OCCOCCN(C)C`, the inhibition was inactive: -8.98%.

For the compound `C(=C\c1ccccc1)/CN1CCN(C(c2ccccc2)c2ccccc2)CC1`, the inhibition was inactive: 0.6%.

Consider `CC1(C)CC(=O)c2c(nc3ccccc3c2N)C1`, for which the inhibition is inactive: -6.88%.

Consider `CC(C)C(=O)Nc1c(O)c2ccccc2[nH]c1=O`, for which the inhibition was inactive: -16.2%.

`O=C(Nc1c(C(=O)O)[nH]c2ccccc12)NC1CCCCC1`: the inhibition is inactive: -3.63%.

`CC(C)[C@H]1CN(C)CCN1Cc1cn(C)nc1-c1cccc(Cl)c1`: the inhibition is inactive: -8.42%.

Consider `CC1CCN(CCOCCOc2ccccc2Br)CC1`, for which the inhibition is inactive: -4.5%.

Regarding `CCC(CO)NCCNC(CC)CO` (stereo not given), the inhibition is inactive: -7.31%.

Consider `c1cnc(N2CCN(Cc3ccc4c(c3)OCO4)CC2)nc1`, for which the inhibition was inactive: -2.71%.

Consider `CN(C)C(=O)C12CCC(C)(c3nc4ccccc4nc31)C2(C)C` (stereo not given), for which the inhibition is inactive: -11.6%.

As for `C/C(=N\NC(=O)C1(C)CC1(Br)Br)c1ccc([N+](=O)[O-])cc1` (stereo not given), the inhibition was inactive: -4.77%.

`COC(=O)c1cc(C(=O)NCCC(C)C)cc([N+](=O)[O-])c1`: the inhibition is inactive: -28.2%.

As to `COc1cccc(-n2cc(CNCc3c(C(=O)N(C)C)nc4ccc(Cl)cn34)cn2)c1`, the inhibition was inactive: 0.53%.

Turning to `CNS(=O)(=O)c1ccc(C)cc1`, the inhibition was inactive: -13.4%.

Turning to `COC(=O)c1ccc2c(c1)C(=O)/C(=C/c1ccc(O)cc1)O2`, the inhibition was inactive: 7.53%.

With `CC(=O)[C@@]1(O)CC[C@H]2[C@@H]3C[C@H](C)C4=CC(=O)C=C[C@]4(C)[C@@]3(F)[C@@H](O)C[C@@]21C`, the inhibition is inactive: -9.9%.

`CCc1nc(N)nc(N)c1-c1ccc(Cl)cc1`: the inhibition is inactive: -8.52%.

Consider `O=C(NCCc1cccc(F)c1)[C@@H]1CSC2c3ccccc3C(=O)N21` (stereo not given in full), for which the inhibition was inactive: -13.8%.

Take `CC(C)NCC(O)COc1ccc(CCOCC2CC2)cc1` (stereo not given): the inhibition was inactive: -0.69%.

In the case of `C1CCC(C(CC2CCCCN2)C2CCCCC2)CC1` (stereo not given), the inhibition was inactive: -1.28%.

In the case of `Clc1ccc(OCCCN2CCCCC2)c(Br)c1`, the inhibition was inactive: 7.48%.

Consider `Cc1nc(N)sc1C(=O)N/N=C/c1ccco1`, for which the inhibition is inactive: -3.01%.

For `Cc1ccc(S(=O)(=O)N[C@@H](Cc2ccccc2)C(=O)CCl)cc1`, the inhibition was active: 82.3%.

As to `COc1ccc(OCC(=O)N2c3ccc(C)cc3C3CN(C)CCC32)cc1` (stereo not given), the inhibition was inactive: 1.63%.

On to `COc1cccc(CN2CCN(C(=O)c3ccc(-c4ccccc4)cc3)CC2)c1`, for which the inhibition was inactive: 2.9%.

On to `COC1CCN(C(=O)c2ccc(OC3CCN(Cc4ccccn4)CC3)cc2)CC1`, for which the inhibition is inactive: -3.88%.

Turning to `COc1ccc(CCN=C(N)C(C)c2ccccc2)cc1OC` (stereo not given), the inhibition is inactive: -12.2%.

Consider `O=C1c2ccccc2C(=O)N1/N=C/c1ccc(Oc2ccc([N+](=O)[O-])cn2)cc1`, for which the inhibition is inactive: -4.7%.

On to `Cc1ccc(S(=O)(=O)Nc2ccc(S(=O)(=O)Nc3cc(C)nc(C)n3)cc2)cc1`, for which the inhibition is inactive: -1.59%.

With `CCN(CC)CCCNC(=O)C1c2ccccc2Oc2ccccc21`, the inhibition is inactive: -7.51%.

As for `C1COC(NC(C2CC2)C2CC2)=N1`, the inhibition is inactive: 4.41%.

Consider `NC(N)=N/N=C/c1ccc(OS(=O)(=O)c2ccccc2)cc1`, for which the inhibition is inactive: 0.04%.

In the case of `OC[C@H]1O[C@@H](n2cnc3c(NC4CCCC4)ncnc32)[C@H](O)[C@@H]1O`, the inhibition was inactive: -5.64%.

Regarding `CCOc1cc(C)cc2oc(=O)cc(-c3ccccc3)c12`, the inhibition was inactive: -6.66%.

For the compound `CC(C)CC(=O)Nc1ccc2oc(-c3ccncc3)nc2c1`, the inhibition was inactive: -6.89%.

In the case of `CCN(Cc1ccncc1)Cc1nc(Cc2ccccc2Cl)no1`, the inhibition was inactive: -2.22%.

Consider `c1cc2c(cc1C1CCCCC1)c1c3n2CCN=C3CCC1`, for which the inhibition was inactive: -2.95%.

As to `Cc1ccc2c(c1C)NC(C(=O)O)C1CC=CC21` (stereo not given), the inhibition was inactive: 12%.

Regarding `COc1cccc2c1C(=O)O/C2=C/c1ccc2c(c1)OCO2`, the inhibition was inactive: 7.21%.

As for `CC(C)[N+](C)(CCOC(=O)C1c2ccccc2Oc2ccccc21)C(C)C`, the inhibition was inactive: 9.82%.

Consider `c1ccc(Nc2ccccn2)nc1`, for which the inhibition was inactive: 0.38%.

For `CC(C)CCn1c(N2CCc3ccccc3C2)nc2c1c(=O)[nH]c(=O)n2C`, the inhibition is inactive: 7.93%.

With `O=C(O)CCNC(=O)c1ccccc1`, the inhibition was inactive: -7.18%.

Turning to `Cc1oc2c(O)c(O)ccc2c(=O)c1-c1ccccc1`, the inhibition is inactive: 2.24%.

Turning to `[N-]=[N+]=NC1C[C@H](n2ccc(=O)[nH]c2=O)O[C@@H]1CO` (stereo not given in full), the inhibition was inactive: -13.8%.
